In test [1] the target is c-FOS (human (endogenous in MCF-7)) (UniProt P01100). The test can be described thus: co-IP; lysates of MCF-7 cells treated with 10 nM HRG over a time course; 0.5 mg lysate protein with 6 ug antibody (c-FOS, FRA-1 or FHL2) overnight at 4 C, protein G Plus/Protein A-agarose 3 hrs, washed three times with HNTG buffer (20 mM HEPES pH 7.5, 150 mM NaCl); Western blot for c-JUN, c-FOS, FRA-1 or FHL2; endogenous proteins. A general note: In western blotting, separated proteins are transferred to a membrane and probed.

The target in test [2] is T1, c-FOS (human (endogenous in MCF-7)), P01100.
T1 chain: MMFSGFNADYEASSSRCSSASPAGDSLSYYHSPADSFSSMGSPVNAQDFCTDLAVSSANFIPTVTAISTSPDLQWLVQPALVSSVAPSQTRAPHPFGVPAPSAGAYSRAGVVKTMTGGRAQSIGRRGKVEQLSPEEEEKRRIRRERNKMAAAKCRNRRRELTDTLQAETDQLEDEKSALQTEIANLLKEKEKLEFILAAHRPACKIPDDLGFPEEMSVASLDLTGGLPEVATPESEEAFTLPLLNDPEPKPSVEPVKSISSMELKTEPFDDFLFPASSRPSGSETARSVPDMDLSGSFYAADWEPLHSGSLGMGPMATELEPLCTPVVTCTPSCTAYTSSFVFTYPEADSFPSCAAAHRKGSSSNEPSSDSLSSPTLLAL
The test can be described thus: co-IP; immunoprecipitation from HRG-treated MCF-7 cells, up to 24 hr after HRG stimulation; unpublished data. Particulars: remark: other sources report otherwise.

Test [3] concerns the target T1, c-FOS (human (endogenous in MCF-7)), …. The test can be described thus: co-IP; lysates of MCF-7 cells treated with 10 nM HRG over a time course; 0.5 mg lysate protein with 6 ug antibody (c-FOS, FRA-1 or FHL2) overnight at 4 C, protein G Plus/Protein A-agarose 3 hrs, washed three times with HNTG buffer (20 mM HEPES pH 7.5, 150 mM NaCl); Western blot for c-JUN, c-FOS, FRA-1 or FHL2; endogenous proteins. Particulars: remark: other sources report otherwise.

For test [4], the target named is T2, FHL2 (four and a half LIM domains 2) (human (endogenous in MCF-7)) (UniProt Q14192).
T2 sequence: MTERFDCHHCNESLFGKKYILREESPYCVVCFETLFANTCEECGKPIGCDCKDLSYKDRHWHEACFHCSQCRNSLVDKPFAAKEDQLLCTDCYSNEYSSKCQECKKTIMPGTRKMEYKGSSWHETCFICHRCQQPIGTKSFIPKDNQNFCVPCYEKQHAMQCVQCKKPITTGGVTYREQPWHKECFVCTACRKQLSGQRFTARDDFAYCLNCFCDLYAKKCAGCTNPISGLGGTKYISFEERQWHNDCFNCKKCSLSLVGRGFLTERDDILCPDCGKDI
Described as above.

Results are given in words; binding and its absence hold for the method and conditions named. Binding seen in cells or lysates may run through a third protein. Some binding calls cover weakened binding; strength is not graded here.

B1: FHL2 (four and a half LIM domains 2) (protein, UniProt Q14192 1-279)
chain: MTERFDCHHCNESLFGKKYILREESPYCVVCFETLFANTCEECGKPIGCDCKDLSYKDRHWHEACFHCSQCRNSLVDKPFAAKEDQLLCTDCYSNEYSSKCQECKKTIMPGTRKMEYKGSSWHETCFICHRCQQPIGTKSFIPKDNQNFCVPCYEKQHAMQCVQCKKPITTGGVTYREQPWHKECFVCTACRKQLSGQRFTARDDFAYCLNCFCDLYAKKCAGCTNPISGLGGTKYISFEERQWHNDCFNCKKCSLSLVGRGFLTERDDILCPDCGKDI
Consider B1, for which the binding entry in test [1] is “binds”.

B2: FRA-1 (FOSL-1 protein), P15407 1-271 (protein)
chain: MFRDFGEPGPSSGNGGGYGGPAQPPAAAQAAQQKFHLVPSINTMSGSQELQWMVQPHFLGPSSYPRPLTYPQYSPPQPRPGVIRALGPPPGVRRRPCEQISPEEEERRRVRRERNKLAAAKCRNRRKELTDFLQAETDKLEDEKSGLQREIEELQKQKERLELVLEAHRPICKIPEGAKEGDTGSTSGTSSPPAPCRPVPCISLSPGPVLEPEALHTPTLMTTPSLTPFTPSLVFTYPSTPEPCASAHRKSSSSSGDPSSDPLGSPTLLAL
As to B2, the binding result in test [2] and in test [3] was “binds” each time.

B3: FRA-1 (FOSL-1 protein) (protein, UniProt P15407 1-271)
chain: MFRDFGEPGPSSGNGGGYGGPAQPPAAAQAAQQKFHLVPSINTMSGSQELQWMVQPHFLGPSSYPRPLTYPQYSPPQPRPGVIRALGPPPGVRRRPCEQISPEEEERRRVRRERNKLAAAKCRNRRKELTDFLQAETDKLEDEKSGLQREIEELQKQKERLELVLEAHRPICKIPEGAKEGDTGSTSGTSSPPAPCRPVPCISLSPGPVLEPEALHTPTLMTTPSLTPFTPSLVFTYPSTPEPCASAHRKSSSSSGDPSSDPLGSPTLLAL
On to B3, for which, in test [4], the binding result is “binds”.

(Values after publication PMC2785842.)
